No constants are given. Whether binding was seen depends on the method and setting. In cells and extracts the contact can be indirect. Here binding means that the protein was enriched with, or labelled near, the bait; the list need not be complete.

Protein sequences, listed by entry. Tags and fused reporters are not part of them. Lines headed by an entry give the natural chain unless they say otherwise; changes in a name come on top.
UniProt Q5B358: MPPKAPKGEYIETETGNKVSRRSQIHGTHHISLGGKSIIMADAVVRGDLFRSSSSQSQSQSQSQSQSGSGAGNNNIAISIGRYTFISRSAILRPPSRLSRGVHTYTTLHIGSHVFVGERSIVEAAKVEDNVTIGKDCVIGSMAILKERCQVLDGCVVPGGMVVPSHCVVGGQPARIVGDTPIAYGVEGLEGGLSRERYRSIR
UniProt Q5BBF4: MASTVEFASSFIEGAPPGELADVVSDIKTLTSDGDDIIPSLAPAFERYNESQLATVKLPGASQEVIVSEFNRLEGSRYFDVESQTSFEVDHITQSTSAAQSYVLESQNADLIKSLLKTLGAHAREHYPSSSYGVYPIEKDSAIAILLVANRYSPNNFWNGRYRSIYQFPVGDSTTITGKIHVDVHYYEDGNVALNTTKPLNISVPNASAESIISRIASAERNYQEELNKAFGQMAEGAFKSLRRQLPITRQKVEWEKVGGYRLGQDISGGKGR
UniProt C8VS47: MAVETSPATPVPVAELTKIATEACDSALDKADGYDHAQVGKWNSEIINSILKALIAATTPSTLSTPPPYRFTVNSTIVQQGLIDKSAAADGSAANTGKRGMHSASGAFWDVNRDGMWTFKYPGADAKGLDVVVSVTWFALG
UniProt Q5BGP0: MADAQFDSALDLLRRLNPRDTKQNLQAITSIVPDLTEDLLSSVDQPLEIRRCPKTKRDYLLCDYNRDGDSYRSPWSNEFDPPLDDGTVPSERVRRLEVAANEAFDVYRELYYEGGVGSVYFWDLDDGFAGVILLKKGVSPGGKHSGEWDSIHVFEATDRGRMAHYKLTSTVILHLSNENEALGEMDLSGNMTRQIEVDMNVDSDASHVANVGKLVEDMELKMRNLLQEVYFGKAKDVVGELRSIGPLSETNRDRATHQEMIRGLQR
UniProt P45444: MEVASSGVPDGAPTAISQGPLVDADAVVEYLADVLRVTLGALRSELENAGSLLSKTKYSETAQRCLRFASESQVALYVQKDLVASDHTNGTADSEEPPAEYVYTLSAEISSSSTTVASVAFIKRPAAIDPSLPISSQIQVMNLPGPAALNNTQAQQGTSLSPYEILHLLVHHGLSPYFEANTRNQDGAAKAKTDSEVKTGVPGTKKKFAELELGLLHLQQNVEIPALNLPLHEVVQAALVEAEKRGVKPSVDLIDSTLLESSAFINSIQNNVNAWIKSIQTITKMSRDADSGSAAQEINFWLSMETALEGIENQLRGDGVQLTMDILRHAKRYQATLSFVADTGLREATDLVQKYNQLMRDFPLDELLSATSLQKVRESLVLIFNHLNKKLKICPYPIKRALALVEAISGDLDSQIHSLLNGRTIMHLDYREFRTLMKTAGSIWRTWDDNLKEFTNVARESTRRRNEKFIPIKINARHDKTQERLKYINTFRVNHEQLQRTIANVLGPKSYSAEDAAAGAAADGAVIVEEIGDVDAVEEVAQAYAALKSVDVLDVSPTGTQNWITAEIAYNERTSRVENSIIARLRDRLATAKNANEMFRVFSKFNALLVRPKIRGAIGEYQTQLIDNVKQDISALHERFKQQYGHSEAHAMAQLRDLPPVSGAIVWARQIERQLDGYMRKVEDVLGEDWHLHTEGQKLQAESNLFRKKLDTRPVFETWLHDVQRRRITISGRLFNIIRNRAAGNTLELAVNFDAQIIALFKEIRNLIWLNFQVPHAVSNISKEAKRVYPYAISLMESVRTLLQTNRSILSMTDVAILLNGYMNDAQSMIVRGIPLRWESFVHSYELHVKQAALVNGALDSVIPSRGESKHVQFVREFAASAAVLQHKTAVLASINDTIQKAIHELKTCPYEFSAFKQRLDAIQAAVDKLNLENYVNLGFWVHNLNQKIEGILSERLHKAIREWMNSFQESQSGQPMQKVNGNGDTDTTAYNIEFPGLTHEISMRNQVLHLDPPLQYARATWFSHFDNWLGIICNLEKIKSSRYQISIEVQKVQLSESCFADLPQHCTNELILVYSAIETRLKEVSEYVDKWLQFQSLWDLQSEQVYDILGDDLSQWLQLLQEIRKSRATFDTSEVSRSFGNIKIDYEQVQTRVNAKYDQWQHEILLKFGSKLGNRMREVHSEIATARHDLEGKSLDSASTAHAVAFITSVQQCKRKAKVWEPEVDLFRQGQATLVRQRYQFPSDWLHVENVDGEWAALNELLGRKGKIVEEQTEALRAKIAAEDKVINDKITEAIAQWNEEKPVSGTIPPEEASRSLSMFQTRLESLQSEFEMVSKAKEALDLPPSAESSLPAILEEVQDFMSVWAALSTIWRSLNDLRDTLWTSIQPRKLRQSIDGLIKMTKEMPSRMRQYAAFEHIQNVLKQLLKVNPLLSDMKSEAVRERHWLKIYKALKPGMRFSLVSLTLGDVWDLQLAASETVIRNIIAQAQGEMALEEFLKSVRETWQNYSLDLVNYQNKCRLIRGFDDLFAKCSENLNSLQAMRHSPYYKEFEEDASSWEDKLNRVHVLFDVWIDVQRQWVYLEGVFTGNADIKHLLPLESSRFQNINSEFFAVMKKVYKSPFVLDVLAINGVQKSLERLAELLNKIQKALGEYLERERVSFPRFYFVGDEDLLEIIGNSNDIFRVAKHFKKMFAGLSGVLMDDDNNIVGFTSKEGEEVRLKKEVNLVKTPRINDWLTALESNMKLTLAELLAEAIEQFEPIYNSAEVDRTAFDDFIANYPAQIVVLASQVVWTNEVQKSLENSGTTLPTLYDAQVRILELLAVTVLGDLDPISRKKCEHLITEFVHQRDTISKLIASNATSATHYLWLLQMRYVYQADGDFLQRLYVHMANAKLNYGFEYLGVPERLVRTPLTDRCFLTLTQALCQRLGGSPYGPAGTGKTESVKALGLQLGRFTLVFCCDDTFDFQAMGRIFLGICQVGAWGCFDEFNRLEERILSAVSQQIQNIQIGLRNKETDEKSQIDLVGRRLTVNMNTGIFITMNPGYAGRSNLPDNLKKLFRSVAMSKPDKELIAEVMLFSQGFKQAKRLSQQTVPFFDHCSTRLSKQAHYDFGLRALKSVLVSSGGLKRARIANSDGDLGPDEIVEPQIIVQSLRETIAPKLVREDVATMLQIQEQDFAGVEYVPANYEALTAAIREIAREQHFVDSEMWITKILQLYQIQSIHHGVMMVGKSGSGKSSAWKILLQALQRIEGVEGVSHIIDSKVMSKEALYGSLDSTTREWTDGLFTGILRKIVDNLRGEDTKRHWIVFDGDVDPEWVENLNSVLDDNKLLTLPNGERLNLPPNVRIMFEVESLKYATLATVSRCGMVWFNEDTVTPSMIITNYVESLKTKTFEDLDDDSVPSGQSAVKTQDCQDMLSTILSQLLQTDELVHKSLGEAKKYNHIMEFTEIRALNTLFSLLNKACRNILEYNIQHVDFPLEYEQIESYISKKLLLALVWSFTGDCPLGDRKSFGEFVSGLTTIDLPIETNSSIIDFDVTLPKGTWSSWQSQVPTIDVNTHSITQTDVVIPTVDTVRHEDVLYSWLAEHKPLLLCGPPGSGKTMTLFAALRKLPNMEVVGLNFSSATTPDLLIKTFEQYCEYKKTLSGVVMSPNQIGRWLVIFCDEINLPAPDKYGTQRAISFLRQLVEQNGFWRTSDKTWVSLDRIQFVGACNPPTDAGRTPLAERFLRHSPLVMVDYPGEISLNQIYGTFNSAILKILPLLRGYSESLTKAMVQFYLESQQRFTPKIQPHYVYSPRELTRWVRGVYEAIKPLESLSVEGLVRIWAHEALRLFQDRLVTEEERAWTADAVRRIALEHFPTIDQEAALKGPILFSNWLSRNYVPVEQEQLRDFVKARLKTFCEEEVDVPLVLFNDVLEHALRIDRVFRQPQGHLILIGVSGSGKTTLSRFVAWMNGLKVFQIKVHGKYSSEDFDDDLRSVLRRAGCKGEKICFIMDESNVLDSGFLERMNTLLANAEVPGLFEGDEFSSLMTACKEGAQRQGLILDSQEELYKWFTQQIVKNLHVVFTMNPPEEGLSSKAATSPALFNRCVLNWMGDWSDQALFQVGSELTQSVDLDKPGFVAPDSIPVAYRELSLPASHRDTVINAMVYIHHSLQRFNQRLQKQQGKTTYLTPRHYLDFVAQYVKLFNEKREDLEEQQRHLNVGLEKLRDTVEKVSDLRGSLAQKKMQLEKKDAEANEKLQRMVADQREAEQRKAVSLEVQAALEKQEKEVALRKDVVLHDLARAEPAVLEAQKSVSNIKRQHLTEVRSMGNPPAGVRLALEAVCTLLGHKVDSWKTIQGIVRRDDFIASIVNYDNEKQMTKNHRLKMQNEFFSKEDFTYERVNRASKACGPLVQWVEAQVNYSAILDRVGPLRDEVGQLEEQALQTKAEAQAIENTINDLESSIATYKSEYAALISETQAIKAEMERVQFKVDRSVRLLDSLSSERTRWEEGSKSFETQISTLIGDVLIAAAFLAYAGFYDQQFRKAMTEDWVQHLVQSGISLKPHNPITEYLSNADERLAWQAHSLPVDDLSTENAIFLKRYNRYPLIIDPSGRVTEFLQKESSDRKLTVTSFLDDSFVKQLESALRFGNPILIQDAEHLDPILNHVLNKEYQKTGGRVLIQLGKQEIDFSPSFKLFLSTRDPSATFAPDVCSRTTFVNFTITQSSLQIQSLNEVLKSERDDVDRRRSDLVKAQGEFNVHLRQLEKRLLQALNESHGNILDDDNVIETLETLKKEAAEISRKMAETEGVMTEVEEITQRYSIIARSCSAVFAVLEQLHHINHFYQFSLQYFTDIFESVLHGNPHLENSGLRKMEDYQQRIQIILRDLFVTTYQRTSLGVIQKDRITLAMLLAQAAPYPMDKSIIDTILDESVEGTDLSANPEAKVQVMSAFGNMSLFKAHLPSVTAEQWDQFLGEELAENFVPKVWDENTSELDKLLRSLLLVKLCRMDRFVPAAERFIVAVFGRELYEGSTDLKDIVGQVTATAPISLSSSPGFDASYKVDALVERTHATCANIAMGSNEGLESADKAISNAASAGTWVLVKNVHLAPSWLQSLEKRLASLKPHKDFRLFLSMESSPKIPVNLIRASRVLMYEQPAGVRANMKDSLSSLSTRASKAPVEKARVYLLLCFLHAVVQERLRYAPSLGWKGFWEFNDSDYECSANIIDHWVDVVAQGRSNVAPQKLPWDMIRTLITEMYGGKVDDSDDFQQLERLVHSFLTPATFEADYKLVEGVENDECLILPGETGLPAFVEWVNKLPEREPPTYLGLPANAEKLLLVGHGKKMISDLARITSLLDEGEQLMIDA

The target of experiment [1] is p25-GFP fusion protein (A. nidulans) (UniProt Q5B358). As to the kind of experiment: affinity purification with mass spectrometry; p25-GFP held on anti-GFP MicroBeads (μMACS) from extract of the p25-GFP strain in the ∆C-HookA-S background; 50 mM Tris-HCl pH 8.0, 4 °C, 30 minutes; strain without GFP tag as negative control.
Experiment [2] deals with CapA-GFP fusion (A. nidulans) (UniProt Q5BBF4). As to the kind of experiment: affinity purification with mass spectrometry; CapA-GFP held on anti-GFP MicroBeads (μMACS) from extract of the CapA-GFP strain in the ∆hookA background; 50 mM Tris-HCl pH 8.0, 4 °C, 30 minutes.

Turning to Dynein TctexA (from UniProt C8VS47), in experiment [1], the binding entry is recorded as “binds”. On the same count and under the same terms, the same measure for “capping protein alpha (CapA) (from UniProt Q5BBF4)”: “binds”.

Take “capping protein beta (CapB) (from UniProt Q5BGP0)”: the binding result in experiment [1] and in experiment [2] was “binds” throughout. For the substance “dynein heavy chain (HC) (from UniProt P45444 1-4345)”, the binding result in experiment [2] is listed as “binds”.

The record behind these values is publication PMC6065395.
